Data reported in PubChem BioAssay AID2685 (National Center for Advancing Translational Sciences (NCATS), 2010).
The list shows a part of the results. The main result of the screen is listed elsewhere. These columns were measured beside it and carry no call. Compounds called inactive in the main read-out are mostly missing here. Potencies come from curve fits of mixed quality, noted in brackets.

Assay: qHTS Assay for Lipid Storage Modulators in Drosophila S3 Cells;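 on cell number change: cells counted by Cell Tracker Red CMTPX staining in the red channel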
Conditions: BODIPY lipid droplet fluorescence, 18-24 h; for cell number change: measured here: cell count max response, cells fed with added oleic acid
How it was run: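 Drosophila S3 cells loaded with oleic acid (400 uM, as added) and compounds at several concentrations; lipid droplets imaged by 488-nm laser-scanning cytometry, 500–530 nm intensity and object ratio to cell channel. Percent activity normalized to 20 uM Triacsin C.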

[1] = measured here: cell number channel AC50, cells fed with added oleic acid
[2] = measured here: lipid fluorescence (Fed channel) AC50, cells fed with added oleic acid

Row | SMILES | cell number change [%] | AC50 [1] | AC50 [2]
1 | COc1ccc(OCc2cc(C(=O)N(C)C3CCOCC3)no2)c2ccccc12 | -13 | 4.61 µM [rising, single point] | 5.17 µM [rising, single point]
2 | COc1ccc(NC(=O)C(Cc2ccccc2)NC(=O)c2ccco2)cc1OC (centres undefined) | 14.6 | – | 0.184 µM [rising, full curve, poor fit]
3 | O=C(COc1ccccc1F)N1CCc2ccccc2C1 | 13.6 | – | 0.82 µM [rising, single point]
4 | CC(C)(C)C(=O)Nc1nnc(SCc2ccc(F)cc2)s1 | -14.6 | – | 0.58 µM [falling, full curve, poor fit]
5 | Cc1c(Cl)cccc1NC(=O)Cn1c(CCC(=O)O)ccc1-c1ccc(Cl)cc1 | 7.62 | – | 29.1 µM [falling, single point]
6 | COC(=O)c1ccc(CN2CCC(CO)(CCOc3ccccc3)CC2)cc1 | -2.05 | – | 1.46 µM [rising, partial curve]
7 | O=C(Nc1ncc(C(F)(F)F)cc1Cl)C1COc2ccccc2O1 (centres undefined) | -4.6 | – | 0.651 µM [falling, single point]
8 | O=C(O)CCC(=O)Nc1ccc(S(=O)(=O)Nc2nccs2)cc1 | -7.08 | – | 6.51 µM [falling, single point]
9 | COc1ccc2nc(/C=N/NC(=O)[C@H](C)NC(=O)OC(C)(C)C)ccc2c1 | -40.8 | 3.66 µM [falling, full curve, poor fit] | –
10 | COc1ccc(C(=O)NC(=S)NCc2ccccc2)cc1OC | 21 | 2.06 µM [falling, partial curve] | 3.66 µM [falling, single point]
11 | COc1ccc(S(=O)(=O)CC(=O)Nc2nnc(C(F)(F)F)s2)cc1 | – | – | 29.1 µM [rising, single point]
12 | O=C(NCCCN1CCOCC1)c1ccccc1-c1ccccc1 | -2.51 | – | –
13 | Cc1ccc(NC(=O)CN(C)CC(=O)Nc2ccccc2Oc2ccccc2)cc1 | -17.1 | – | 0.00461 µM [rising, full curve, poor fit]
14 | O=C(O)c1ccc2c(c1)C(=O)N(CCCCCCCN1C(=O)c3ccc(C(=O)O)cc3C1=O)C2=O | 27 | 0.164 µM [rising, full curve, poor fit] | 2.06 µM [rising, full curve]
15 | CC(C)CCN(C)c1ccc(/C=N/n2cnnc2)cc1 | – | – | 2.91 µM [rising, partial curve]
16 | COC(=O)CCCCCCCCC(O)CN1CCCCC1 (centres undefined) | -26.2 | 1.46 µM [falling, full curve, poor fit] | 3.26 µM [falling, full curve, poor fit]
17 | COCCNc1c(-c2ccc(OC)cc2)nc2ccc(Cl)cn12 | -17.4 | – | 0.58 µM [falling, single point]
18 | Cc1nn(Cc2ccccc2)c(C)c1CCC(=O)O | 9.35 | – | 0.731 µM [falling, full curve]
19 | Cc1ccc2oc(C(=O)NC3CCS(=O)(=O)C3)c(C)c2c1 (centres undefined) | -24.3 | – | –

Row | SMILES | cell number change [%] | AC50 [1] | AC50 [2]
20 | Cc1ccc2nc3c(c(Nc4cccc(O)c4)c2c1)CCC3 | -72.5 | 16.4 µM [falling, partial curve, poor fit] | 20.6 µM [falling, partial curve]
21 | Cc1ccccc1C(=O)N1CCC(C(=O)NN2C(=O)NC3(CCC(C)CC3)C2=O)CC1 (centres undefined) | -36.4 | 0.291 µM [falling, full curve] | –
22 | COc1ccccc1NS(=O)(=O)c1cc(NC(=O)c2[nH]c(C)c(C(C)=O)c2C)ccc1N1CCOCC1 | – | – | 0.411 µM [falling, partial curve, poor fit]
23 | COc1ccc(Nc2nc(NN)nc(Nc3ccc(OC)cc3)n2)cc1 | -26.1 | – | 0.13 µM [falling, full curve, poor fit]
24 | Cc1ccc(NS(=O)(=O)c2cc(C(=O)O)ccc2Cl)cc1 | – | – | 0.13 µM [falling, partial curve, poor fit]
25 | CCCCNC(=O)O[C@@H]1C[C@@H]2CCN3C(=O)CCC[C@H]([C@H]1CC)[C@H]23 | 23.9 | 3.66 µM [rising, partial curve, poor fit] | –
26 | CC1CCCC(C)N1CCCNC(=O)C1CCCN(c2ncnc3c2nc2n3CCCCC2)C1 (centres undefined) | 45.8 | – | 29.1 µM [falling, single point]
27 | O=C(CCSc1nc(-c2ccc3c(c2)OCO3)cc(C(F)(F)F)n1)NCc1ccco1 | -0.184 | – | 2.59 µM [rising, full curve]
28 | CC(=O)c1cccc(OCc2cc(C(=O)N(C)CCc3ccccn3)no2)c1 | -6.9 | – | –
29 | COc1ccc(C(=O)Nc2nnc(Cc3ccc(OC)c(OC)c3)s2)c(OC)c1 | -19.9 | – | –
30 | COCCOCCn1cnc2ccccc21 | -133 | 25.9 µM [falling, partial curve] | 0.116 µM [falling, full curve, poor fit]
31 | Cc1ccc(Nc2ncnc3c2cnn3C)cc1 | -15.4 | – | 0.92 µM [falling, full curve]
32 | COc1ccc(OCC(=O)Nc2ccc3oc(=O)ccc3c2)cc1 | 5.41 | – | 6.51 µM [falling, single point]
33 | CC(=O)c1cc2c(cc1NC(=O)CCNC(=O)c1ccccc1Cl)OCO2 | 22.9 | – | 0.82 µM [rising, single point]
34 | CCCCC(=O)Nc1ccccc1N1CCOCC1 | -6.78 | – | –
35 | O=C(Nc1ccc(S(=O)(=O)N2CCOCC2)cc1)c1cccnc1 | -35.1 | 29.1 µM [falling, single point] | 29.1 µM [falling, single point]
36 | CCC1=NN(S(=O)(=O)c2ccc(C)cc2)C(O)(C(F)(F)F)C1 (centres undefined) | 35.1 | – | 20.6 µM [rising, single point]
37 | COc1ccc(C(CNC(=O)c2ccc(-c3ccccc3Cl)o2)N2CCOCC2)cc1 (centres undefined) | -23.9 | – | –
38 | CCCC1(CCC)NC(=O)N(CC(=O)N2CCN(C(=O)c3ccco3)CC2)C1=O | -51.6 | 2.06 µM [falling, full curve] | 0.731 µM [falling, full curve]

Three compounds drawn at random from those above, as already listed:
Row | SMILES | cell number change [%] | AC50 [1] | AC50 [2]
25 | CCCCNC(=O)O[C@@H]1C[C@@H]2CCN3C(=O)CCC[C@H]([C@H]1CC)[C@H]23 | 23.9 | 3.66 µM [rising, partial curve, poor fit] | –
10 | COc1ccc(C(=O)NC(=S)NCc2ccccc2)cc1OC | 21 | 2.06 µM [falling, partial curve] | 3.66 µM [falling, single point]
33 | CC(=O)c1cc2c(cc1NC(=O)CCNC(=O)c1ccccc1Cl)OCO2 | 22.9 | – | 0.82 µM [rising, single point]
